Further values from the same series stand in other lists.
Test: Particle size distribution by laser diffraction (Malvern Panalytical Mastersizer 3000, Fraunhofer)
Assay type: physicochemical
Method: The particle size distribution was measured by laser diffraction using the Malvern Panalytical Mastersizer 3000.
The samples are again taken from example 1.6 (probe 1) and example 1.5 (probe 2), the same as used in example 4.
The sample to be analyzed is dispersed in 1 drop of Tween 80 the sample is processed according to ISO13320.
Laser diffraction is an often-used method for determination the particle size of dispersed solid materials. A widened laser beam illuminates a cuvette which contains part of the particles. By diffraction on the particles a characteristic pattern can be mapped on the detector. The resulting diffraction image is the additive overlaying of diffraction images of all particles.
Besides the mentioned detector two additional detectors are mounted in order to detect diffraction light in forward direction (FA1,9), in wide angle (LA1,2) and in back direction (BS1,2). The turbidity of the sample is measured by an extinction sensor. This is necessary to ensure a low particle concentration which is necessary to avoid wrong results by multiple diffraction of light at several particles.
The cuvette used was a wet unit where the suspension is pumped in a closed circuit with a dispersing unit that ensures a separation of single particles by shear forces.
The measurement range of the Malvern 3000 covers a particle size from 1 mm (2 mm) down to 20 nm
The calculation of the particle size distribution from the diffraction patterns was done on basis of theory of Fraunhofer.
This assumption is valid for particle sizes of 10 to 50 μm and above. For smaller particles the light scattering of the particle itself due to optical transparency must be considered which is done in the Mie-theory (not used for our probes). Precondition of the application of the Mie-theory is the knowledge of the refractive and absorption index of the dispersed solids.
Q3 is the cumulative volume distribution, e.g. D50=Q(50%) indicates 50% of the volume part of the sample is smaller than particle size of 50 μm.
The particle size is expressed as an equivalent diameter used in the method recommended by the Malvern Analysis Program and as described in ISO13320.

Structure (SMILES): C[C@@H]1OC(=O)NN=C1c1ccc(-c2ccc(F)cc2)c(C(F)(F)F)c1 [polymorph C, (6S)-5-[4′-Fluoro-2-(trifluoromethyl)biphenyl-4-yl]-6-methyl-3,6-dihydro-2H-1,3,4-oxadiazin-2-one]
- Cumulative volume distribution Q (particle size D 5.92 μm, 300 s US, listed as Porbe2): 4.05%
- Cumulative volume distribution Q (particle size D 5.92 μm, without US, listed as Probe 2): 0%
- Cumulative volume distribution Q (particle size D 6.72 μm, 300 s US, listed as Porbe2): 4.6%
- Cumulative volume distribution Q (particle size D 6.72 μm, without US, listed as Probe 2): 0.06%
- Cumulative volume distribution Q (particle size D 7.64 μm, 300 s US, listed as Porbe2): 5.22%
- Cumulative volume distribution Q (particle size D 7.64 μm, without US, listed as Probe 2): 0.13%
- Cumulative volume distribution Q (particle size D 8.68 μm, 300 s US, listed as Porbe2): 5.91%
- Cumulative volume distribution Q (particle size D 8.68 μm, without US, listed as Probe 2): 0.2%
- Cumulative volume distribution Q (particle size D 9.86 μm, 300 s US, listed as Porbe2): 6.7%
- Cumulative volume distribution Q (particle size D 9.86 μm, without US, listed as Probe 2): 0.27%
- Cumulative volume distribution Q (particle size D 11.2 μm, 300 s US, listed as Porbe2): 7.61%
- Cumulative volume distribution Q (particle size D 11.2 μm, without US, listed as Probe 2): 0.35%
- Cumulative volume distribution Q (particle size D 12.7 μm, 300 s US, listed as Porbe2): 8.67%
- Cumulative volume distribution Q (particle size D 12.7 μm, without US, listed as Probe 2): 0.43%
- Cumulative volume distribution Q (particle size D 14.5 μm, 300 s US, listed as Porbe2): 9.93%
- Cumulative volume distribution Q (particle size D 14.5 μm, without US, listed as Probe 2): 0.52%
- Cumulative volume distribution Q (particle size D 16.4 μm, 300 s US, listed as Porbe2): 11.44%
- Cumulative volume distribution Q (particle size D 16.4 μm, without US, listed as Probe 2): 0.66%
- Cumulative volume distribution Q (particle size D 18.7 μm, 300 s US, listed as Porbe2): 13.29%
- Cumulative volume distribution Q (particle size D 18.7 μm, without US, listed as Probe 2): 0.85%
- Cumulative volume distribution Q (particle size D 21.2 μm, 300 s US, listed as Porbe2): 15.54%
- Cumulative volume distribution Q (particle size D 21.2 μm, without US, listed as Probe 2): 1.12%
- Cumulative volume distribution Q (particle size D 24.1 μm, 300 s US, listed as Porbe2): 18.26%
- Cumulative volume distribution Q (particle size D 24.1 μm, without US, listed as Probe 2): 1.51%
- Cumulative volume distribution Q (particle size D 27.4 μm, 300 s US, listed as Porbe2): 21.51%
- Cumulative volume distribution Q (particle size D 27.4 μm, without US, listed as Probe 2): 2.02%
- Cumulative volume distribution Q (particle size D 31.1 μm, 300 s US, listed as Porbe2): 25.33%
- Cumulative volume distribution Q (particle size D 31.1 μm, without US, listed as Probe 2): 2.66%
- Cumulative volume distribution Q (particle size D 35.3 μm, 300 s US, listed as Porbe2): 29.7%
- Cumulative volume distribution Q (particle size D 35.3 μm, without US, listed as Probe 2): 3.42%
- Cumulative volume distribution Q (particle size D 40.1 μm, 300 s US, listed as Porbe2): 34.58%
- Cumulative volume distribution Q (particle size D 40.1 μm, without US, listed as Probe 2): 4.3%
- Cumulative volume distribution Q (particle size D 45.6 μm, 300 s US, listed as Porbe2): 39.87%
- Cumulative volume distribution Q (particle size D 45.6 μm, without US, listed as Probe 2): 5.3%
- Cumulative volume distribution Q (particle size D 51.8 μm, 300 s US, listed as Porbe2): 45.48%
- Cumulative volume distribution Q (particle size D 51.8 μm, without US, listed as Probe 2): 6.44%
- Cumulative volume distribution Q (particle size D 58.9 μm, 300 s US, listed as Porbe2): 51.26%
- Cumulative volume distribution Q (particle size D 58.9 μm, without US, listed as Probe 2): 7.78%
- Cumulative volume distribution Q (particle size D 66.9 μm, 300 s US, listed as Porbe2): 57.08%
- Cumulative volume distribution Q (particle size D 66.9 μm, without US, listed as Probe 2): 9.44%
- Cumulative volume distribution Q (particle size D 76 μm, 300 s US, listed as Porbe2): 62.81%
- Cumulative volume distribution Q (particle size D 76 μm, without US, listed as Probe 2): 11.6%
- Cumulative volume distribution Q (particle size D 86.4 μm, 300 s US, listed as Porbe2): 68.33%
- Cumulative volume distribution Q (particle size D 86.4 μm, without US, listed as Probe 2): 14.47%
- Cumulative volume distribution Q (particle size D 98.1 μm, 300 s US, listed as Porbe2): 73.52%
- Cumulative volume distribution Q (particle size D 98.1 μm, without US, listed as Probe 2): 18.26%
- Cumulative volume distribution Q (particle size D 111 μm, 300 s US, listed as Porbe2): 78.28%
- Cumulative volume distribution Q (particle size D 111 μm, without US, listed as Probe 2): 23.13%
- Cumulative volume distribution Q (particle size D 127 μm, 300 s US, listed as Porbe2): 82.52%
- Cumulative volume distribution Q (particle size D 127 μm, without US, listed as Probe 2): 29.12%
- Cumulative volume distribution Q (particle size D 144 μm, 300 s US, listed as Porbe2): 86.16%
- Cumulative volume distribution Q (particle size D 144 μm, without US, listed as Probe 2): 36.15%
- Cumulative volume distribution Q (particle size D 163 μm, 300 s US, listed as Porbe2): 89.2%
- Cumulative volume distribution Q (particle size D 163 μm, without US, listed as Probe 2): 43.99%
- Cumulative volume distribution Q (particle size D 186 μm, 300 s US, listed as Porbe2): 91.66%
- Cumulative volume distribution Q (particle size D 186 μm, without US, listed as Probe 2): 52.3%
- Cumulative volume distribution Q (particle size D 211 μm, 300 s US, listed as Porbe2): 93.62%
- Cumulative volume distribution Q (particle size D 211 μm, without US, listed as Probe 2): 60.66%
- Cumulative volume distribution Q (particle size D 240 μm, 300 s US, listed as Porbe2): 95.18%
- Cumulative volume distribution Q (particle size D 240 μm, without US, listed as Probe 2): 68.67%
- Cumulative volume distribution Q (particle size D 272 μm, 300 s US, listed as Porbe2): 96.46%
- Cumulative volume distribution Q (particle size D 272 μm, without US, listed as Probe 2): 75.96%
- Cumulative volume distribution Q (particle size D 310 μm, 300 s US, listed as Porbe2): 97.5%
- Cumulative volume distribution Q (particle size D 310 μm, without US, listed as Probe 2): 82.27%
- Cumulative volume distribution Q (particle size D 352 μm, 300 s US, listed as Porbe2): 98.37%
- Cumulative volume distribution Q (particle size D 352 μm, without US, listed as Probe 2): 87.49%
- Cumulative volume distribution Q (particle size D 400 μm, 300 s US, listed as Porbe2): 99.05%
- Cumulative volume distribution Q (particle size D 400 μm, without US, listed as Probe 2): 91.58%
- Cumulative volume distribution Q (particle size D 454 μm, 300 s US, listed as Porbe2): 99.55%
- Cumulative volume distribution Q (particle size D 454 μm, without US, listed as Probe 2): 94.65%
- Cumulative volume distribution Q (particle size D 516 μm, 300 s US, listed as Porbe2): 99.86%
- Cumulative volume distribution Q (particle size D 516 μm, without US, listed as Probe 2): 96.82%
- Cumulative volume distribution Q (particle size D 586 μm, 300 s US): 100%
- Cumulative volume distribution Q (particle size D 586 μm, without US, listed as Probe 2): 98.26%
- Cumulative volume distribution Q (particle size D 666 μm, 300 s US): 100%
- Cumulative volume distribution Q (particle size D 666 μm, without US, listed as Probe 2): 99.16%

Source: US20260258004A1, “CRYSTALLINE FORMS OF (6S)-5-[4'-FLUORO-2-(TRIFLUOROMETHYL)BIPHENYL-4-YL]-6-METHYL-3,6- DIHYDRO-2H-l,3,4-OXADIAZIN-2-ONE” (Bayer Aktiengesellschaft, priority 2022, published 2026)
